From PubChem BioAssay AID2685 (National Center for Advancing Translational Sciences (NCATS), 2010) come the findings set out here.

This is one part of the list. The main result of the screen is listed elsewhere. These columns were measured beside it and carry no call. Compounds called inactive in the main read-out are mostly missing here. The note in brackets gives the kind of curve behind each potency; many fits are weak.

A short description of the experiment: qHTS Assay for Lipid Storage Modulators in Drosophila S3 Cells.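 On cell number change: cells counted by Cell Tracker Red CMTPX staining in the red channel.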 Particulars: BODIPY lipid droplet fluorescence, 18-24 h; for cell number change: measured here: cell count max response, cells fed with added oleic acid. In outline: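 Laser-scanning cytometry quantifies lipid droplet accumulation (500–530 nm total intensity; droplet/cell object ratio) in oleic acid-fed (400 uM added) Drosophila S3 cells treated with a concentration series. 20 uM Triacsin C defined 100% inhibition.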
(qHTS replaces the single test concentration by a dilution series.)

Setting [1] is: measured here: lipid fluorescence (Fed channel) AC50, cells fed with added oleic acid.
[2] abbreviates: measured here: cell number channel AC50, cells fed with added oleic acid.

As for `N#Cc1ccccc1NC(=O)COC(=O)CCc1ccc(S(=O)(=O)N2CCCCC2)cc1`, the cell number change was -11.7%. Moreover, under setting [1], the AC50 (commonly the concentration giving half of the maximal activity seen) is 0.146 µM [falling, full curve, poor fit].
Regarding `Nc1ncccc1OCc1cccc(C(F)(F)F)c1`, the cell number change was -27.3%. In addition, the AC50 under setting [1] was 29.1 µM [falling, single point].
On to `Cc1ccc(C(=O)NNC(=O)c2ccccc2-n2cccc2)cc1`, for which the cell number change is -39.4%.
Take `O=C(C1=C[C@@H](c2ccc3c(c2)OCO3)C[C@@H](OCCCCO)O1)N1CCOCC1`: the cell number change came out at 29.3%. The half-maximal activity concentration (AC50) under setting [1] is 0.0651 µM [rising, full curve, poor fit].
Turning to `NC(=O)Nc1n[nH]c(-c2ccccc2)n1`, the cell number change came to 11%. Further, the half-maximal activity concentration (AC50) under setting [1] was 18.4 µM [rising, single point].
In the case of `CCN=C1S/C(=C\c2ccc(-c3cccc(C(=O)O)c3)o2)C(=O)N1CC`, the cell number change was -3.84%. In addition, under setting [1], the concentration at half-maximal activity (AC50) was 4.61 µM [falling, full curve, poor fit].
For the molecule `COc1ccc([N+](=O)[O-])cc1NCC(=O)Nc1cc(S(=O)(=O)N2CCCCC2)ccc1C`, the AC50 under setting [1] was 0.00461 µM [falling, full curve, poor fit].
For the molecule `NC(=O)c1ccc(SCC(=O)NC2CCCCC2)c([N+](=O)[O-])c1`, the cell number change is -12.1%.
`CCCNC(=O)COC(=O)c1cccnc1Nc1ccccc1F`: the cell number change is 8.14%. Further, the AC50 under setting [1] was 29.1 µM [rising, single point].
As for `Cc1ccccc1CCNC(=O)C1CCN(S(=O)(=O)c2ccc(-n3cnnn3)cc2)CC1`, the cell number change was determined as 28.4%. For the same molecule, the concentration at half-maximal activity (AC50) under setting [1] was 29.1 µM [rising, single point].
On to `COC(=O)c1cc(C(=O)OC)n(Cc2ccc(F)cc2)n1`, for which the AC50 under setting [2] is 2.91 µM [rising, single point].
`COc1ccc(C2/C(=C(\O)c3ccc4c(c3)OCCO4)C(=O)C(=O)N2Cc2cccnc2)cc1OC` (stereo not drawn): the cell number change is 7.55%. Moreover, the AC50 under setting [1] was 29.1 µM [rising, single point].
In the case of `COc1ccc(C(=O)NC2CCN(C(=S)Nc3cc(C)cc(C)c3)CC2)cc1`, the cell number change came to 13.4%. Besides, under setting [2], the AC50 was 3.26 µM [falling, single point]. The AC50 under setting [1] is 6.51 µM [falling, single point].
`COc1ccc(/C=N/n2cncn2)cc1Cn1nc(C)c([N+](=O)[O-])c1C`: the cell number change is -8%. Besides, under setting [1], the AC50 was 0.164 µM [rising, partial curve, poor fit].
In the case of `CCN(CC)S(=O)(=O)c1cccc(C(=O)N2CC(O)CC2C(=O)OC)c1` (stereo not drawn), the cell number change was 5.81%. The AC50 under setting [1] is 0.0731 µM [falling, full curve, poor fit].
Turning to `CCOC(=O)c1c(-c2ccc(C)o2)csc1N`, the cell number change was found to be 8.3%. The AC50 under setting [2] is 4.11 µM [rising, single point].
Regarding `Cc1cc(C)cc(NC(=O)CCn2ccnc2C)c1`, the cell number change is -21.4%. Moreover, the AC50 under setting [2] was 0.146 µM [falling, full curve, poor fit]. In addition, the AC50 under setting [1] was 3.26 µM [falling, full curve].
`CC(C)c1ccc2c(c1)C1(NN=C(c3ccccc3)S1)C(=O)N2` (stereo not drawn): the cell number change is -79%. Further, under setting [2], the AC50 was 13 µM [falling, partial curve]. The AC50 under setting [1] is 14.6 µM [falling, partial curve].
With `CC1=C(C(=O)NCc2ccccc2)C(c2ccc(C)o2)n2ncnc2N1` (stereo not drawn), the cell number change stood at 23.2%. For the same molecule, under setting [1], the AC50 was 0.731 µM [rising, single point].
Regarding `COc1ccc2[nH]c(=O)c(CN(Cc3ccccc3)Cc3nnnn3CC3CCCO3)cc2c1` (stereo not drawn), the cell number change was found to be 9.01%. Moreover, the AC50 under setting [2] is 6.51 µM [rising, single point]. Under setting [1], the AC50 was 0.13 µM [rising, full curve, poor fit].
Take `Cn1c(=NC(=O)c2ccco2)sc2cccc(F)c21`: the cell number change is 7.27%.
Turning to `CCOC(=O)c1c(C)c(C(=O)N2CCN(c3cccc(Cl)c3)CC2)c(C)n1C`, the cell number change is -20.8%. Besides, the AC50 under setting [1] was 32.6 µM [rising, single point].
Take `CCOc1ccc(C(=O)NCC(=O)OCC(=O)NC2CCCC2)cc1`: the cell number change was -9.86%. Also, the AC50 under setting [2] was 0.103 µM [falling, full curve, poor fit]. For the same molecule, the AC50 under setting [1] was 0.731 µM [rising, partial curve, poor fit].
Turning to `CCSc1ccc([C@@H]2[C@H]3C(=O)N(CC)C(=O)[C@H]3[C@]3(C(=O)OC)CCCCN23)cc1`, the cell number change turned out to be 20.2%. Also, under setting [1], the AC50 was 0.651 µM [rising, full curve, poor fit].
Take `N#C/C(=C\Nc1ccc2cn[nH]c2c1)c1nc(-c2ccccc2)cs1`: the cell number change is -65.3%. Moreover, the AC50 under setting [2] was 29.1 µM [falling, single point]. Also, under setting [1], the AC50 was 29.1 µM [falling, single point].
On to `CC(C)(C)c1ccc(C(=O)Nc2cccnc2)cc1`, for which the cell number change worked out at 7.77%. Under setting [1], the AC50 was 6.51 µM [falling, single point].
As to `CN(Cc1ccccc1)C(=O)CCn1c(=O)oc2ccccc21`, the cell number change is -1.22%. The AC50 under setting [2] is 6.51 µM [falling, single point]. For the same molecule, the AC50 under setting [1] is 0.0206 µM [falling, full curve, poor fit].
With `CCCCNC(=O)CC(=O)Nc1ccccc1C(=O)O`, under setting [1], the AC50 was 23.1 µM [rising, partial curve].
As for `CC(=O)Nc1cccc(C(=O)OCN2C(=O)c3ccccc3C2=O)c1`, the cell number change is -13.3%. Also, the AC50 under setting [1] is 0.58 µM [rising, single point].
For `CC(NC(=O)c1cc(-c2ccc(Br)cc2)on1)c1ccccc1` (stereo not drawn), the cell number change came out at 36.9%. Further, the AC50 under setting [2] is 2.59 µM [rising, partial curve, poor fit]. Moreover, the AC50 under setting [1] is 0.0231 µM [rising, full curve].
Regarding `COc1ccccc1C(=O)NNC(=O)C(=O)Nc1ccc(C)c(Cl)c1`, the cell number change was 44.4%. Moreover, under setting [2], the AC50 is 18.4 µM [rising, single point]. Moreover, the AC50 under setting [1] was 29.1 µM [rising, single point].
Consider `O=C(c1ccccc1)c1nn(-c2ccc(Cl)cc2)cc1C(=O)c1cc2ccccc2oc1=O`, for which the AC50 runs as follows: under setting [2], 0.259 µM [rising, full curve]; under setting [1], 2.59 µM [rising, partial curve].
Turning to `N=c1sccn1CC(=O)N1N=C(c2ccc(Cl)cc2)CC1c1ccco1` (stereo not drawn), the AC50 under setting [2] is 0.00411 µM [rising, full curve, poor fit].
Take `COc1ccc(Cl)cc1N(CC(=O)N1CCC(C)CC1)S(C)(=O)=O`: under setting [1], the AC50 was 1.64 µM [falling, partial curve].
As to `Nc1nonc1/C(=N/O)N1CCCC1`, the cell number change was -15.4%. Further, the AC50 under setting [2] was 0.0231 µM [falling, full curve, poor fit]. Moreover, under setting [1], the AC50 is 4.11 µM [falling, single point].
`CC(O)c1nc(C(C)O)n(CC(=O)c2ccccc2)n1` (stereo not drawn): the cell number change is -19.3%.
On to `C=CCOC(=O)C1=C[C@H](c2coc3ccccc3c2=O)[C@@H](CCCO)[C@H](OCC)O1`, for which the cell number change came to 27.9%. Under setting [1], the AC50 is 0.103 µM [rising, full curve, poor fit].
`O=C(CN1CCCC1c1cccs1)N1CCN(S(=O)(=O)c2ccccc2)CC1` (stereo not drawn): the cell number change turned out to be 46%. In addition, the AC50 under setting [2] is 29.1 µM [rising, single point].
Take `CCN(C(=O)COC(=O)c1cccnc1SC)C1CCCCC1`: the cell number change is -4.76%. For the same molecule, the AC50 under setting [1] was 29.1 µM [rising, single point].
In the case of `Nc1nonc1C(=O)N/N=C/c1cc2c(cc1Br)OCO2`, the cell number change stood at 20.5%. Also, the AC50 under setting [1] is 13 µM [rising, partial curve].
For `Cc1cc([N+](=O)[O-])nn1CCCC(=O)NCc1ccc(F)cc1`, the cell number change is -8.14%. Besides, the concentration at half-maximal activity (AC50) under setting [2] is 6.51 µM [rising, single point].
With `CCCN1C2CCCC1CC(NC(=S)Nc1cccc(C)c1C)C2` (stereo not drawn), the cell number change was -11.3%. The concentration at half-maximal activity (AC50) under setting [1] is 0.731 µM [falling, full curve, poor fit].
As to `Cc1ccc(C)c(OCCn2cc(/C=C(/C#N)C(=O)NCC3CCCO3)c3ccccc32)c1` (stereo not drawn), the cell number change came out at 29.7%. Further, under setting [2], the AC50 is 0.103 µM [rising, partial curve, poor fit]. Also, under setting [1], the half-maximal activity concentration (AC50) was 29.1 µM [falling, single point].
Take `Cn1c(=O)[nH]c(=O)c2c1nc(N1CCN(Cc3ccccc3)CC1)n2CCCc1ccccc1`: the cell number change is 20.5%. In addition, the AC50 under setting [1] was 2.31 µM [rising, partial curve].
In the case of `CCOc1ccc(CN(C)C(=O)[C@H](Cc2ccccc2)NC(=O)OCc2ccccc2)cc1OC`, the AC50 under setting [1] was 7.31 µM [falling, partial curve].
Regarding `CN(CCc1ccccc1)C1CCCN(C(=O)Cn2cccn2)C1` (stereo not drawn), the cell number change was -2.55%. In addition, under setting [1], the AC50 is 29.1 µM [falling, single point].
Regarding `CCOC(=O)C1CCN(c2ccc([N+](=O)[O-])cc2S(=O)(=O)N2CCOCC2)CC1`, the cell number change was 21.3%. For the same molecule, the AC50 under setting [2] is 0.00411 µM [rising, full curve, poor fit].
For `O=C(c1ccc(Cl)c([N+](=O)[O-])c1)N1CCN(S(=O)(=O)c2ccc(Cl)cc2)CC1`, the cell number change was -24.6%.
In the case of `Cc1nc(C/C(=N\N)c2ccc(O)cc2O)cs1`, the cell number change was found to be 96.9%. Moreover, the AC50 under setting [2] was 23.1 µM [rising, single point].
As for `COc1cccc(CN2CCNC(=O)C2CC(=O)NCc2cn3ccc(C)cc3n2)c1OC` (stereo not drawn), the cell number change is -1.16%. Under setting [2], the AC50 was 0.0731 µM [falling, full curve, poor fit].
For the molecule `O=C(NCCCN1CCCC1=O)c1cc(-c2ccc3c(c2)OCO3)nc2ccccc12`, the cell number change was found to be 128%. In addition, the AC50 under setting [2] was 4.11 µM [falling, single point]. Under setting [1], the half-maximal activity concentration (AC50) is 6.51 µM [falling, single point].
`O=C(NC(=S)Nc1ccc(S(=O)(=O)N2CCCCC2)cc1)c1ccc(Cl)cc1`: the cell number change was -11.3%. For the same molecule, under setting [1], the AC50 is 0.651 µM [rising, full curve].
For `COc1ccc(C(=O)NC(=S)Nc2ccccc2F)cc1`, the cell number change is -6.75%. For the same molecule, under setting [1], the AC50 is 0.116 µM [falling, full curve, poor fit].
For `NCCN1CCN(S(=O)(=O)c2ccc([N+](=O)[O-])cc2)C=C1c1ccc(Cl)cc1`, the cell number change was -4.46%.
Regarding `CC1CC(=O)C2=C(C1)Nc1ccccc1N(C(=O)COc1ccccc1)C2c1ccco1` (stereo not drawn), the cell number change came to 33.2%. The concentration at half-maximal activity (AC50) under setting [2] is 18.4 µM [rising, single point].
Take `O=c1[nH]c(SCc2ccccc2Cl)nc2c1cnn2-c1ccccc1`: the cell number change was -42.9%. Further, the AC50 under setting [2] was 14.6 µM [falling, single point]. Besides, the AC50 under setting [1] is 29.1 µM [falling, single point].
